{
  "source": "patent US20240156778A1",
  "about": "“THIOPHENE DERIVATIVES FOR USE IN TREATING PORTAL INFLAMMATION AND FIBROSIS” (ENYO PHARMA, priority 2019, published 2024)",
  "key": {"[1]": {"system": "NASH mouse model", "experiment": "Periportal inflammation score in the AMLN-diet NASH mouse model (H&E inflammatory foci)", "format": "in vivo, male C57BL/6JRj mice", "details": "8 weeks oral dosing after high-fat (AMLN) diet; Compound #157 7 or 20 mg/kg twice daily; OCA 30 mg/kg once daily; FIG. 1", "experimental": "Mice were fed with a high-fat diet for 30 weeks and then treated by oral administration, twice daily with either compound #157 or once daily with OCA for 8 weeks. Effects on portal/periportal inflammation and fibrosis and on lobular inflammation were determined before treatment and upon study completion.\nFive week old, male C57BL/6JRj mice were fed either chow diet (Altromin 1324, Brogaarden, Denmark) or AMLN diet (40% total fat kcal of which 18.5% were trans-fat kcal, 20% fructose, 2% cholesterol; Research Diets #D09100301). This diet was maintained for 29 weeks prior to study initiation.\nThree weeks prior to study initiation, liver biopsies were taken and animals with steatosis grade <2 and fibrosis stage <1 were deselected from the study. Prior to first administration of test article, stratified randomization of mice into treatment groups was performed according to collagen 1a1 (IHC) morphometry from the week -3 biopsies. […]\nAt termination, right medial and/or left lateral lobes of the liver (>50% of each lobe harvested) were excised and fixed in 10% neutral-buffered formalin (at least 7 days at room temperature). […] NAFLD and NASH were scored by use of criteria outlined by Kleiner et al. Hepatology 41, p. […]\nInflammation was evaluated by counting the number of hematoxylin and eosin (H&E) positive inflammatory foci per field using a 200× magnification (min. 5 fields per animal). […]"}, "[2]": {"system": "NASH", "details": "phase III clinical trials; cited from earlier work"}, "[3]": {"system": "NASH mouse model", "experiment": "Lobular inflammation score in the AMLN-diet NASH mouse model (H&E inflammatory foci)", "format": "in vivo, male C57BL/6JRj mice", "details": "8 weeks oral dosing after high-fat (AMLN) diet; OCA 30 mg/kg once daily; FIG. 3"}},
  "note": "At least one structure is not confirmed: it was looked up by name or label, or the drawing left a doubt.",
  "data": [
    {"compound": "CC[C@H]1[C@@H](O)[C@@H]2[C@H](CC[C@]3(C)[C@@H]([C@H](C)CCC(=O)O)CC[C@@H]23)[C@@]2(C)CC[C@@H](O)C[C@@H]12", "note": "[OCA, Obeticholic acid]", "values": [
      {"measurement": "Effect on portal/periportal inflammation", "setting": "[1]", "result": "but not in the portal/periportal region"},
      {"measurement": "Effect on lobular inflammation", "setting": "[2]", "result": "significant effect"},
      {"measurement": "Effect on portal inflammation", "setting": "[2]", "result": "no effect"},
      {"measurement": "Effect on steatosis", "setting": "[2]", "result": "significant effect"},
      {"measurement": "Effect on lobular inflammation", "setting": "[3]", "result": "significant anti-inflammatory effect"}
    ]}
  ]
}
